# Numbering of substitutions follows the chain as printed. Results are given in words; binding and its absence hold for the method and conditions named. Some binding calls cover weakened binding; strength is not graded here.
# Amino acid sequences for entries named in this document (tags omitted). Residues count along the entry.
# UniProt Q5ZPR3, residues 29-534: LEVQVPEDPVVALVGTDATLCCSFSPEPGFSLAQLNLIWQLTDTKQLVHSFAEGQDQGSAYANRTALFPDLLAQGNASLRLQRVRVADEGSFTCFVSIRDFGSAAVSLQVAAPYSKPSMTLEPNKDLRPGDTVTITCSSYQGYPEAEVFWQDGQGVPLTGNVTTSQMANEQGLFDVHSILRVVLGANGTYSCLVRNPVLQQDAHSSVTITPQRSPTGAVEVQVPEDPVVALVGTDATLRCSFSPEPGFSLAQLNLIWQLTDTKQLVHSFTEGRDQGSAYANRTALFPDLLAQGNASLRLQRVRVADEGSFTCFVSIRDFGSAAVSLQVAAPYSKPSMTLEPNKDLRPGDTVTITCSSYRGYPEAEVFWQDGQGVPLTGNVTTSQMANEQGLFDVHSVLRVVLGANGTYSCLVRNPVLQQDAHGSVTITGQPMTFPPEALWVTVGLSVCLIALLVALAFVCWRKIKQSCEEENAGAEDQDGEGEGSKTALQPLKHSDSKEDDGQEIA
# UniProt Q8VE98, residues 29-244: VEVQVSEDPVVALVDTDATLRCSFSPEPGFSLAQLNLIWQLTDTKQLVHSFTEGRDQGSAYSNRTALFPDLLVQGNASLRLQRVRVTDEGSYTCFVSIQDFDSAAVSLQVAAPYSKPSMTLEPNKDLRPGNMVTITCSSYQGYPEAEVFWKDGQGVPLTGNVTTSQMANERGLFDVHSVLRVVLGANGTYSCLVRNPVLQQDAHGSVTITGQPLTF
# B1: 40511p1.1.D8 (scFv, V domains shown)
# VH: DVQLVESGGGVVRPGESLRLSCAASGFTFSSYAMSWVRQAPGEGLEWVSSISGSGGSTLYADSVKGRFTISRDSSNNSLYLQMNSLRAEDTAVYYCAKARNNFFDYWGLGTLVTVSS
# VL: EIVLTQSPGTLTLSPGERATLSCRASRSILTSLAWYQQRPGQAPRLLIYGANSRATGIPDRFSGSGSGTEFTLTISSLQSEDFAVYYCQQYYDWLTITFGGGTKVEIK
# B2: 40511p1.2.B5 (scFv, V domains shown)
# VH: B1 VH
# VL: B1 VL with A43T
# B3: 40579p1.E5 (scFv, V domains shown)
# VH: EVQLLESGGGLVQPGGSLRLSCAASGFTFSDDWMTWVRQAPGKGLEWVSAINWNGNSTHYADSVKGRFTVSRDNSKNTLYLQMNSLRAEDTAVYYCAKSRTTYYSSMDVWGQGTTVTVSS
# VL: EIVLTQSPGTLSLSPGERATLSCRASQTVGSYLAWYQQKPGQAPRLLIYGASSRATGIPARFSGSGSGTDFTLTISSLQSEDFAVYYCQHYYDWPPYSFGGGTKVEIK
# B4: 40511p1.1.G1 (scFv, V domains shown)
# VH: DVQLVESGGGVVRPGESLRLSCAASGFTFSSYAESWVRQAPGEGLEWVSIISGSGGNTFYADSVKGRFTISRDNSKNTLYLQMNSLRAEDTAVYYCARFAYGFFDYWGLGTLVTVSS
# VL: EIVLTQSPGTLSVSPGEGATLSCRASQTVGSKLAWYQQKPGQPPSLLIYDASTRATGIPDRFSGSGSGTDFTLTISSLQSEDFAVYYCQQYRNWPPLTFGGGTKVEIK
# B5: 40511p1.1.D6 (scFv, V domains shown)
# VH: DVQLVESGGGVVRPGESLTLSCAASGFTINSYAVSWVRQAPGEGLEWVSGISGSGVRYYADSVKGRFTISRDNSNNTLYLQMNSLRAEDTAVYYCARSNKVTWNNFFDYWGLGTLVTVSS
# VL: EVVLTQSPGTLTLSPGERATLSCRASRSILTSLAWYQQKPGQAPRLLIYNTVTRATGIPARFSGSGSGTEFTLTINSLQSEDFAVYYCQQYYDWPPLTFGGGTKVEIK
# B6: 40511p1.1.G3 (scFv, V domains shown)
# VH: B5 VH with N73D
# VL: B5 VL
# B7: 40511p1.1.A1 (scFv, V domains shown)
# VH: DVQLVESGGGVVRPGESLRLSCAASGFTFSNYAMNWVRQAPGEGLEWVSRINYKGYNITYYADSVKGRFTISRDNSKNTLYLQMNSLRAEDTAVYYCAKSGSNSNNFFDYWGLGTLVTVSS
# VL: EIVLTQSPGTLSVSPGERATLSCRASQSVNSKLAWYQQRPGQAPRLLIYDASSRATGIPDRFSGSGSGTDFTLTISRLEPEDFAVYYCQQYKNWPPLTFGGGTKVEIK
# B8: 40511p1.2.A12 (scFv, V domains shown)
# VH: B4 VH
# VL: B4 VL with G18R
# B9: 40511p1.1.H5 (scFv, V domains shown)
# VH: B7 VH
# VL: EIVLTQSPGTLSLSPGERATLSCRASQSIRSDLAWYQQKPGQAPRLLIYGAASRATGIPARFSGSGSGTEFTLTISSLQSGDFAVYYCQQYNSWPPLTFGGGTKVEIK
# B10: 40511p1.1.H10 (scFv, V domains shown)
# VH: B7 VH
# VL: EIVLTQSPGNLSLSPGERATLSCRASQSVGSQLGWYQQKPGQAPRLLIYGASTRATGIPDRFSGSGSGTEFALTISSLQSEDFAVYYCQQYYDWPPLTFGGGTKVEIK
# B11: 40579p1.B8 (scFv, V domains shown)
# VH: EVQLLESGGGLVQPGGSLRLSCAASGFTFSDYYMSWVRQAPGKGLEWVSGISMSSTIYYADSVKGRFTISRDNSKNTLYLQMNSLRAEDTAVYYCARHRSPYQYRSMDVWGQGTTVTVSS
# VL: B4 VL with V13L, G18R, T28S, G30N, T53R, D70E, R92N
# B12: 40511p1.2.G10 (scFv, V domains shown)
# VH: B7 VH
# VL: B10 VL with N10T, S28T, Q32K, G34A, G57D, A72T, Y92I, D93N, T98S
# B13: 40579p1.H11 (scFv, V domains shown)
# VH: EVQLLESGGGLVQPGGSLRLSCAASGFTFDDYGMSWVRQAPGKGLEWVSAIRSKASSYATYYADSVKGRFTVSRDNSENTLYLQMNSLRAEDTAVYYCAKHRSNYYFMDVWGQGTTVTVSS
# VL: B10 VL with N10T, Q32D, G34A, K39R, G50A, T53S, G57D, E70D, A72T, D93S
# B14: 40511p1.2.A4 (scFv, V domains shown)
# VH: B4 VH
# VL: B4 VL with G18R, P43A, S45R, G57D
# B15: 40633p1.1.A6 (scFv, V domains shown)
# VH: EVQLLESGGGLVQPGGSLRLSCAASGFSFSNYDMSWVRQAPGKGLEWVAGIRSGSRTYYADSVKGRFTISRDNSKNTLYLQMNSLRAEDTATYYCGRYFNMDVWGQGTTVTVSS
# VL: QSVLTQPPSASGTPGQRVTISCSGSTFNIGTNLVHWYQQLPGTAPKLLIYLTDRRPSGVPDRFSGSKSGTSASLAISGLQSEDEANYYCATWDDSLNSFLFGGGTKLTVL
# B16: 40579p1.C2 (scFv, V domains shown)
# VH: EVQLLESGGDLVQPGGSLRLSCAASGFNFSSYWMSWVRQAPGKGLEWVSGISISYGGNAYYADSVKGRFTVSRDNSKNTLYLQMNSLRAEDTAVYYCGRDRSPYQYRSMDVWGQGTTVTVSS
# VL: EIVLTQSPATLSVSPGERATFSCRASQTIGNKLAWYQQKPGQAPRLLIFSASTRATDIPDRFSGSGSGTDFTLTISSLQSEDFAVYYCQQYNNWPPLTFGGGTKVEIK
# B17: 40579p1.H7 (scFv, V domains shown)
# VH: B16 VH
# VL: B9 VL with A52S, G81E, S93N
# B18: 40579p1.F7 (scFv, V domains shown)
# VH: B16 VH with D10G, N28T, S31D, W33Y
# VL: EIVLTQSPGTLSLSPGERATLTCRASQSVGDFLAWYQQKPGQAPRLLIYGASTRAAGIPARFRGSGSGTDFTLTISSLQSEDFAVYYCQQYKNWPPLTFGGGTKVEIK
# B19: 40579p1.G1 (scFv, V domains shown)
# VH: B16 VH with D10G
# VL: B9 VL with A52S, G81E, S93N
# B20: 40579p1.H6 (scFv, V domains shown)
# VH: EVQLLESGGGLVQPGGSLRLSCAASGFTVNNAWMSWVRQAPGKGLEWVSAISYGGSIYYADSVKGRFTISRDNSKNTLYLQMNSLRAEDTAVYYCAKHRSTTYNGMDVWGQGTTVTVSS
# VL: B18 VL with T22S, D31S, S52N, A60D, S67N, K92Y, N93D
# B21: 40633p1.1.A11 (scFv, V domains shown)
# VH: EVQLLESGGDLVQPGGSLRLSCAASGFTFNTYWMNWVRQAPGKGLEWVAGINSKGGVTYYADSVKGRFTISRDNSKNTLYLQMNSLRAEDTAVYYCADWNDYDIMDVWGQGTTVTVSS
# VL: QSVLTQPPSASGTPGQTITISCSGSSSNVGRRTVNWYQQLPGTAPKLLIYTNAQRPSGVPDRFSGSKSGTSASLAISGLQSEDEADYYCATWDDSLNAWVFGGGTKLTVL
# B22: 40633p1.2.C11 (scFv, V domains shown)
# VH: B21 VH with D10G, N30S, T31S, N35S, S53R, K54N, V57S, K76E, M83V, D98R
# VL: QSVLTQPSSASGTPGQRVTISCSGSSSNVGRRAVNWYQQLPGTAPKLLISNSQRPSGVPDRFSGSKSGTSASLAISGLQSEDEADYYCATWDASLNSWVFGGGTKLTVL
# Target: B7-H3 on B7-H3-expressing CHO cells (Genescript) (UniProt Q5ZPR3)
# Experiment: flow cytometry, B7-H3-expressing CHO cells, 10 ug/ml
row,binding,Binder
1,binds,B1
2,binds,B2
3,binds,B3
4,binds,B4
5,binds,B5
6,binds,B6
7,binds,B7
8,binds,B8
9,binds,B9
10,binds,B10
11,binds,B11
12,binds,B12
13,binds,B13
14,binds,B14
15,binds,B15
16,binds,B16
17,binds,B17
18,binds,B18
19,binds,B19
20,binds,B20
21,binds,B21
22,binds,B22

# Target: His-tagged mouse B7-H3 (mouse) (UniProt Q8VE98)
# Experiment: ELISA, coated His-tagged antigen
row,binding,Binder
1,binds,B1
2,binds,B2
3,binds,B3
4,binds,B4
5,binds,B5
6,binds,B6
7,binds,B7
8,binds,B8
9,binds,B9
10,binds,B11
11,binds,B12
12,binds,B14
13,binds,B15
14,binds,B16
15,binds,B17
16,binds,B18
17,binds,B19
18,binds,B20
19,binds,B21
